The list shows a part of the results.
Experiments:
Experiment in all cases: glycan array binding signal (z-score within array); higher = stronger binding
Details in all cases: glycan notation: IUPAC condensed, linker removed
GlcNAc(b1-3)Gal(b1-4)Glc = biological target: GlcNAc(b1-3)Gal(b1-4)Glc
How it was run: (§1)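 The binding signal is a Z-score computed within each array and averaged over linkers. Arrays of the same protein sequence at different concentrations or buffers were also averaged together. Data originate from 3228 arrays in the Consortium for Functional Glycomics database, kept only where the protein sequence was available.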

[1] = biological target: GlcNAc(b1-3)Gal(b1-4)GlcNAc
How it was run: as §1

[2] = biological target: GlcNAc(b1-3)Gal(b1-4)GlcNAc(b1-2)Man(a1-3)[GlcNAc(b1-3)Gal(b1-4)GlcNAc(b1-2)Man(a1-6)]Man(b1-4)GlcNAc(b1-4)GlcNAc
How it was run: as §1

[3] = biological target: GlcNAc(b1-3)Gal(b1-4)GlcNAc(b1-2)Man(a1-3)[GlcNAc(b1-3)Gal(b1-4)GlcNAc(b1-2)Man(a1-6)]Man(b1-4)GlcNAc(b1-4)[Fuc(a1-6)]GlcNAc
How it was run: as §1

[4] = biological target: GlcNAc(b1-3)Gal(b1-4)GlcNAc(b1-2)[GlcNAc(b1-3)Gal(b1-4)GlcNAc(b1-6)]Man(a1-6)[GlcNAc(b1-3)Gal(b1-4)GlcNAc(b1-2)Man(a1-3)]Man(b1-4)GlcNAc(b1-4)GlcNAc
How it was run: as §1

[5] = biological target: GlcNAc(b1-3)Gal(b1-4)GlcNAc(b1-3)Gal(b1-4)GlcNAc
How it was run: as §1

[6] = biological target: GlcNAc(b1-3)Gal(b1-4)GlcNAc(b1-3)Gal(b1-4)GlcNAc(b1-2)Man(a1-3)[GlcNAc(b1-3)Gal(b1-4)GlcNAc(b1-3)Gal(b1-4)GlcNAc(b1-2)Man(a1-6)]Man(b1-4)GlcNAc(b1-4)GlcNAc
How it was run: as §1

[7] = biological target: GlcNAc(b1-3)Gal(b1-4)GlcNAc(b1-3)Gal(b1-4)GlcNAc(b1-2)Man(a1-3)[GlcNAc(b1-3)Gal(b1-4)GlcNAc(b1-3)Gal(b1-4)GlcNAc(b1-2)Man(a1-6)]Man(b1-4)GlcNAc(b1-4)[Fuc(a1-6)]GlcNAc
How it was run: as §1

[8] = biological target: GlcNAc(b1-3)Gal(b1-4)GlcNAc(b1-3)Gal(b1-4)GlcNAc(b1-2)[GlcNAc(b1-3)Gal(b1-4)GlcNAc(b1-3)Gal(b1-4)GlcNAc(b1-6)]Man(a1-6)[GlcNAc(b1-3)Gal(b1-4)GlcNAc(b1-3)Gal(b1-4)GlcNAc(b1-2)Man(a1-3)]Man(b1-4)GlcNAc(b1-4)[Fuc(a1-6)]GlcNAc
How it was run: as §1

[9] = biological target: GlcNAc(b1-3)Gal(b1-4)GlcNAc(b1-3)Gal(b1-4)GlcNAc(b1-3)Gal(b1-4)GlcNAc(b1-2)Man(a1-3)[GlcNAc(b1-3)Gal(b1-4)GlcNAc(b1-3)Gal(b1-4)GlcNAc(b1-3)Gal(b1-4)GlcNAc(b1-2)Man(a1-6)]Man(b1-4)GlcNAc(b1-4)GlcNAc
How it was run: as §1

[10] = biological target: GlcNAc(b1-3)Gal(b1-4)GlcNAc(b1-3)Gal(b1-4)GlcNAc(b1-3)Gal(b1-4)GlcNAc(b1-2)Man(a1-3)[GlcNAc(b1-3)Gal(b1-4)GlcNAc(b1-3)Gal(b1-4)GlcNAc(b1-3)Gal(b1-4)GlcNAc(b1-2)Man(a1-6)]Man(b1-4)GlcNAc(b1-4)[Fuc(a1-6)]GlcNAc
How it was run: as §1

[11] = biological target: GlcNAc(b1-3)Gal(b1-4)GlcNAc(b1-3)Gal(b1-4)GlcNAc(b1-3)Gal(b1-4)GlcNAc(b1-2)[GlcNAc(b1-3)Gal(b1-4)GlcNAc(b1-3)Gal(b1-4)GlcNAc(b1-3)Gal(b1-4)GlcNAc(b1-6)]Man(a1-6)[GlcNAc(b1-3)Gal(b1-4)GlcNAc(b1-3)Gal(b1-4)GlcNAc(b1-3)Gal(b1-4)GlcNAc(b1-2)Man(a1-3)]Man(b1-4)GlcNAc(b1-4)[Fuc(a1-6)]GlcNAc
How it was run: as §1

[12] = biological target: GlcNAc(b1-3)Gal(b1-4)GlcNAc(b1-3)Gal(b1-4)GlcNAc(b1-3)Gal(b1-4)GlcNAc(b1-3)Gal(b1-4)GlcNAc(b1-2)Man(a1-3)[GlcNAc(b1-3)Gal(b1-4)GlcNAc(b1-3)Gal(b1-4)GlcNAc(b1-3)Gal(b1-4)GlcNAc(b1-3)Gal(b1-4)GlcNAc(b1-2)Man(a1-6)]Man(b1-4)GlcNAc(b1-4)GlcNAc
How it was run: as §1

[13] = biological target: GlcNAc(b1-3)Gal(b1-4)GlcNAc(b1-3)Gal(b1-4)GlcNAc(b1-3)Gal(b1-4)GlcNAc(b1-3)Gal(b1-4)GlcNAc(b1-2)Man(a1-3)[GlcNAc(b1-3)Gal(b1-4)GlcNAc(b1-3)Gal(b1-4)GlcNAc(b1-3)Gal(b1-4)GlcNAc(b1-3)Gal(b1-4)GlcNAc(b1-2)Man(a1-6)]Man(b1-4)GlcNAc(b1-4)[Fuc(a1-6)]GlcNAc
How it was run: as §1

[14] = biological target: GlcNAc(b1-3)Gal(b1-4)GlcNAc(b1-3)Gal(b1-4)GlcNAc(b1-3)Gal(b1-4)GlcNAc(b1-3)Gal(b1-4)GlcNAc(b1-2)[GlcNAc(b1-3)Gal(b1-4)GlcNAc(b1-3)Gal(b1-4)GlcNAc(b1-3)Gal(b1-4)GlcNAc(b1-3)Gal(b1-4)GlcNAc(b1-6)]Man(a1-6)[GlcNAc(b1-3)Gal(b1-4)GlcNAc(b1-3)Gal(b1-4)GlcNAc(b1-3)Gal(b1-4)GlcNAc(b1-3)Gal(b1-4)GlcNAc(b1-2)Man(a1-3)]Man(b1-4)GlcNAc(b1-4)[Fuc(a1-6)]GlcNAc
How it was run: as §1

[15] = biological target: GlcNAc(b1-3)Gal(b1-4)GlcNAc(b1-3)Gal(b1-4)GlcNAc(b1-3)GalNAc
How it was run: as §1

[16] = biological target: GlcNAc(b1-3)Gal(b1-4)GlcNAc(b1-3)GalNAc
How it was run: as §1

[17] = biological target: GlcNAc(b1-3)Gal(b1-4)GlcNAc(b1-3)[GlcNAc(b1-3)Gal(b1-4)GlcNAc(b1-3)]GalNAc
How it was run: as §1

[18] = biological target: GlcNAc(b1-3)Gal(b1-4)GlcNAc(b1-6)[Gal(b1-3)]GalNAc
How it was run: as §1

[19] = biological target: GlcNAc(b1-3)Gal(b1-4)GlcNAc(b1-6)[GlcNAc(b1-3)Gal(b1-3)]GalNAc
How it was run: as §1

[20] = biological target: GlcNAc(b1-3)Gal(b1-4)GlcNAc(b1-6)[GlcNAc(b1-3)]Gal(b1-4)GlcNAc
How it was run: as §1

GlcNAc(b1-3)GalNAc = biological target: GlcNAc(b1-3)GalNAc
How it was run: as §1

B1: Pwp7 (Candida glabrata) (protein)
chain: MGSSHHHHHHSSGLVPRGSHMASKNPVDFPNLCQYPNLDGAVAGFDTEIYNADPSILINFSLWPILQFPKEWHKTIGRAITTQTNFKLPASDTTLFGVSIPTQNILIEFRGYFIPPKSGTYTFALYLTDDGSAMFLGNDAAFPCGNITSWSNPTNDQVSVSDYDPKKKTLTVYMVAGVAYPLRIAYYNREKGGSLTASFVDPDGLTHSDWNGYIWTLPSCDNCKYS
- glycan array binding signal (z-score) (GlcNAc(b1-3)Gal(b1-4)Glc): -1.1
- glycan array binding signal (z-score) [1]: -0.755
- glycan array binding signal (z-score) [2]: 1.01
- glycan array binding signal (z-score) [3]: 0.927
- glycan array binding signal (z-score) [4]: 1.17
- glycan array binding signal (z-score) [5]: -0.296
- glycan array binding signal (z-score) [6]: 1.87
- glycan array binding signal (z-score) [7]: 1.88
- glycan array binding signal (z-score) [8]: 1.79
- glycan array binding signal (z-score) [9]: 0.478
- glycan array binding signal (z-score) [10]: 1.59
- glycan array binding signal (z-score) [11]: 1.85
- glycan array binding signal (z-score) [12]: 1.66
- glycan array binding signal (z-score) [13]: 2.91
- glycan array binding signal (z-score) [14]: 1.62
- glycan array binding signal (z-score) [15]: 0.128
- glycan array binding signal (z-score) [16]: 2.79
- glycan array binding signal (z-score) [17]: 0.792
- glycan array binding signal (z-score) [18]: 1.47
- glycan array binding signal (z-score) [19]: 1.75
- glycan array binding signal (z-score) [20]: 0.338
- glycan array binding signal (z-score) (GlcNAc(b1-3)GalNAc): -0.079
